Source: patent US20210364494A1, “CELL-SUBSTRATE IMPEDANCE MONITORING OF CANCER CELLS OF DIFFERENT LINEAGE, ORIGIN, OR STAGE” (ACEA BIOSCIENCES, INC., priority 2017, published 2021)
Read-outs that look alike come from different tables or passages of the source.

Legend:
[1] = tested on: HepG2; assay: cells; details: Homo sapiens, HepG2, 48 h, read-out: IC-50, RE-CES
[2] = tested on: HepG2; assay: cells; details: Homo sapiens, HepG2, 48 h, read-out: IC-50, MTT Assay

IC50 [1]: 15.2 µM
IC50 [2]: 16.2 µM
Structure (SMILES): CC/C(=C(\c1ccccc1)c1ccc(OCCN(C)C)cc1)c1ccccc1 [Tamoxifen]
